Reference: paper PMC4102803

Sequences of proteins named here, by UniProt entry; tags and fusion partners are left off.
UniProt Q9UJU6: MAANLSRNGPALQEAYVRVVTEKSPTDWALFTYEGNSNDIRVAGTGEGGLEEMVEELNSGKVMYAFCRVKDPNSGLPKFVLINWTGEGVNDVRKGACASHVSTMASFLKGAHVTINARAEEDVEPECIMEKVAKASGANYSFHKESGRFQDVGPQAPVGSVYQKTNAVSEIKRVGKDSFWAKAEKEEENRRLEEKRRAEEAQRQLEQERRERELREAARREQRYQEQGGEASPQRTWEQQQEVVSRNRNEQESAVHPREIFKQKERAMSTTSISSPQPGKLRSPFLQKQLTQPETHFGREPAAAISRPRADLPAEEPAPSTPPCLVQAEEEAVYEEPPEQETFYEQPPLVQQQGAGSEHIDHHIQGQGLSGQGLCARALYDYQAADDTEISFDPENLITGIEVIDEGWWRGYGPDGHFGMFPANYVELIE

Target: T1, GST-14-3-3γ (affinity resin) (UniProt P61981)
T1 sequence: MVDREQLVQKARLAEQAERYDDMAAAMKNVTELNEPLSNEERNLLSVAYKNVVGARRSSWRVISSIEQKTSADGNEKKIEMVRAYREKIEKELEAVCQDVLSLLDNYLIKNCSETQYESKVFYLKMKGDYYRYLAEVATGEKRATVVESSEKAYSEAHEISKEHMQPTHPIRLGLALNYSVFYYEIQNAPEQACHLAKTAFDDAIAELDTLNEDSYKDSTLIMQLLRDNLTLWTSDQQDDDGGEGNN
Assay: affinity purification with mass spectrometry; A549 cell lysates incubated with GST-14-3-3γ affinity resin; washed; bound proteins eluted with the 14-3-3 antagonist peptide R18; eluate analysed by mass spectrometry; only the target purified

HIP-55 (HPK1-interacting protein of 55 kDa)/Drebrin-like (DBNL) (from UniProt Q9UJU6 1-430)
binding: binds

These are yes or no findings as the source states them, for the method shown. Binding seen in cells or lysates may run through a third protein. Here binding means that the protein was enriched with, or labelled near, the bait; the list need not be complete. Tags and fused reporters may be left off the sequences shown.
